# The list is a part of this screen's results and no random one: it is rich in T/C values a quarter to a half above the control, in often repeated tests (any T/C) and in doses without a T/C. Other doses and runs of a compound stand elsewhere. T/C is the treated group as % of the vehicle group. Some entries give survivors of the animals treated and no T/C: the source files T/C as zero there, which appears to mark a toxic dose or a test without result, not a measured value. Some doses without a T/C left all or most animals alive at the check, yet need not have been tolerated: survival well below the control is almost never listed, so the zero probably covers shortened survival too. Counts of survivors are from the toxicity check (mostly the fifth day) where no day follows; animals may have died later. Schedules are NCI's codes, taken here to give the interval after Q, in days (D) or hours (H), and the number of doses after X. Some molecules as drawn cover several salts, stereoisomers or complexes of the source; a dose is that of the sample tested. Some schedule codes hold Z or #, which are not explained here. Where survival is the endpoint, this PubChem deposit counts one and a half times the control or more as active, and values a quarter to a half above the control carry no call in these data; other NCI protocols may use other cut-offs. Some T/C values are followed by the survivors on the day toxicity was checked, most often the fifth; without a count, all were alive then.
# Test system: L1210 leukemia ip in BDF1 mice, survival T/C
# Experiment: NCI In Vivo Anticancer Drug Screen. Data for tumor model L1210 Leukemia (intraperitoneal) in B6D2F1 (BDF1) mice
# Conditions: T/C endpoint: mean survival time, higher T/C = longer survival
# [1] = dose: 75.0 mg/kg/injection, schedule: Q04DX003 (ip), vehicle: saline with Tween-80
structure (smiles),measurement,setting,value
CC(=O)OCCN1CCN(CCCN2c3ccccc3Sc3ccc(C(F)(F)F)cc32)CC1,T/C,"dose: 14.5 mg/kg/injection, schedule: Q04DX003 (ip), vehicle: saline with Tween-80",131 % of control
same,survivor count,"dose: 22.0 mg/kg/injection, schedule: Q04DX003 (ip), vehicle: saline sonified",3 of 6
same,T/C,"dose: 33.0 mg/kg/injection, schedule: Q04DX003 (ip), vehicle: saline with Tween-80",145 % of control
same,T/C,"dose: 33.4 mg/kg/injection, schedule: Q04DX003 (ip), vehicle: saline with Tween-80",142 % of control
same,survivor count,"dose: 50.0 mg/kg/injection, schedule: Q04DX003 (ip), vehicle: saline sonified",3 of 6
same,T/C,"dose: 50.0 mg/kg/injection, schedule: Q04DX003 (ip), vehicle: saline with Tween-80, evaluated on day 20",131 % of control
same,T/C,"dose: 50.0 mg/kg/injection, schedule: Q04DX003 (ip), vehicle: saline with Tween-80, evaluated on day 30",149 % of control
same,T/C,"dose: 50.0 mg/kg/injection, schedule: Q04DX003 (ip), vehicle: saline",129 % of control
same,survivor count,"dose: 75.0 mg/kg/injection, schedule: Q04DX003 (ip), vehicle: saline sonified",4 of 6
same,T/C,[1],131 % of control
same,survivor count,[1],4 of 6
same,survivor count,"dose: 100.0 mg/kg/injection, schedule: Q04DX003 (ip), vehicle: saline with Tween-80",6 of 6
same,survivor count,"dose: 200.0 mg/kg/injection, schedule: Q01DX001 (ip), vehicle: saline",2 of 6
same,survivor count,"dose: 200.0 mg/kg/injection, schedule: Q04DX003 (ip), vehicle: saline with Tween-80",6 of 6
same,survivor count,"dose: 400.0 mg/kg/injection, schedule: Q01DX001 (ip), vehicle: saline",0 of 6
same,survivor count,"dose: 400.0 mg/kg/injection, schedule: Q04DX003 (ip), vehicle: saline with Tween-80",0 of 6
Cc1cccc(OC(=O)Nc2ccc(Cl)cc2)c1,survivor count,"dose: 400.0 mg/kg/injection, schedule: Q01DX009 (ip), vehicle: saline with Tween-80",3 of 3
Nc1n[nH]c(=S)s1,survivor count,"dose: 400.0 mg/kg/injection, schedule: Q01DX009 (ip), vehicle: Klucel (hydroxypropylcellulose) (HPC)",3 of 6
same,T/C,"dose: 591.0 mg/kg/injection, schedule: Q01DX015 (ip), vehicle: Klucel (hydroxypropylcellulose) (HPC)",132 % of control [9 of 10 alive]
same,survivor count,"dose: 887.0 mg/kg/injection, schedule: Q01DX015 (ip), vehicle: Klucel (hydroxypropylcellulose) (HPC)",0 of 10
same,survivor count,"dose: 1000.0 mg/kg/injection, schedule: Q01DX001 (ip), vehicle: Klucel (hydroxypropylcellulose) (HPC)",1 of 10
same,survivor count,"dose: 1500.0 mg/kg/injection, schedule: Q01DX001 (ip), vehicle: Klucel (hydroxypropylcellulose) (HPC)",0 of 10
same,survivor count,"dose: 2250.0 mg/kg/injection, schedule: Q01DX001 (ip), vehicle: Klucel (hydroxypropylcellulose) (HPC)",0 of 10
same,survivor count,"dose: 3375.0 mg/kg/injection, schedule: Q01DX001 (ip), vehicle: Klucel (hydroxypropylcellulose) (HPC)",0 of 10
CCC(C)C(=NC)Nc1ccc(Cl)c(Cl)c1 (centres undefined),survivor count,"dose: 166.0 mg/kg/injection, schedule: Q01DX Z (ip), vehicle: methylcellulose (MC)",0 of 6
same,survivor count,"dose: 250.0 mg/kg/injection, schedule: Q01DX Z (ip), vehicle: methylcellulose (MC)",0 of 6
C=CCOCC(O)CN1CCC(C)CC1 (centres undefined),survivor count,"dose: 100.0 mg/kg/injection, schedule: Q04DX003 (ip), vehicle: Klucel (hydroxypropylcellulose) (HPC)",3 of 6
same,survivor count,"dose: 200.0 mg/kg/injection, schedule: Q04DX003 (ip), vehicle: Klucel (hydroxypropylcellulose) (HPC)",0 of 6
same,survivor count,"dose: 400.0 mg/kg/injection, schedule: Q04DX003 (ip), vehicle: Klucel (hydroxypropylcellulose) (HPC)",0 of 6

# From PubChem BioAssay AID248 (DTP/NCI, 2004)
